## Percent effect of library compounds

Chains of the proteins cited; added tags and fusions are not shown.
UniProt I6X8D2, whole entry: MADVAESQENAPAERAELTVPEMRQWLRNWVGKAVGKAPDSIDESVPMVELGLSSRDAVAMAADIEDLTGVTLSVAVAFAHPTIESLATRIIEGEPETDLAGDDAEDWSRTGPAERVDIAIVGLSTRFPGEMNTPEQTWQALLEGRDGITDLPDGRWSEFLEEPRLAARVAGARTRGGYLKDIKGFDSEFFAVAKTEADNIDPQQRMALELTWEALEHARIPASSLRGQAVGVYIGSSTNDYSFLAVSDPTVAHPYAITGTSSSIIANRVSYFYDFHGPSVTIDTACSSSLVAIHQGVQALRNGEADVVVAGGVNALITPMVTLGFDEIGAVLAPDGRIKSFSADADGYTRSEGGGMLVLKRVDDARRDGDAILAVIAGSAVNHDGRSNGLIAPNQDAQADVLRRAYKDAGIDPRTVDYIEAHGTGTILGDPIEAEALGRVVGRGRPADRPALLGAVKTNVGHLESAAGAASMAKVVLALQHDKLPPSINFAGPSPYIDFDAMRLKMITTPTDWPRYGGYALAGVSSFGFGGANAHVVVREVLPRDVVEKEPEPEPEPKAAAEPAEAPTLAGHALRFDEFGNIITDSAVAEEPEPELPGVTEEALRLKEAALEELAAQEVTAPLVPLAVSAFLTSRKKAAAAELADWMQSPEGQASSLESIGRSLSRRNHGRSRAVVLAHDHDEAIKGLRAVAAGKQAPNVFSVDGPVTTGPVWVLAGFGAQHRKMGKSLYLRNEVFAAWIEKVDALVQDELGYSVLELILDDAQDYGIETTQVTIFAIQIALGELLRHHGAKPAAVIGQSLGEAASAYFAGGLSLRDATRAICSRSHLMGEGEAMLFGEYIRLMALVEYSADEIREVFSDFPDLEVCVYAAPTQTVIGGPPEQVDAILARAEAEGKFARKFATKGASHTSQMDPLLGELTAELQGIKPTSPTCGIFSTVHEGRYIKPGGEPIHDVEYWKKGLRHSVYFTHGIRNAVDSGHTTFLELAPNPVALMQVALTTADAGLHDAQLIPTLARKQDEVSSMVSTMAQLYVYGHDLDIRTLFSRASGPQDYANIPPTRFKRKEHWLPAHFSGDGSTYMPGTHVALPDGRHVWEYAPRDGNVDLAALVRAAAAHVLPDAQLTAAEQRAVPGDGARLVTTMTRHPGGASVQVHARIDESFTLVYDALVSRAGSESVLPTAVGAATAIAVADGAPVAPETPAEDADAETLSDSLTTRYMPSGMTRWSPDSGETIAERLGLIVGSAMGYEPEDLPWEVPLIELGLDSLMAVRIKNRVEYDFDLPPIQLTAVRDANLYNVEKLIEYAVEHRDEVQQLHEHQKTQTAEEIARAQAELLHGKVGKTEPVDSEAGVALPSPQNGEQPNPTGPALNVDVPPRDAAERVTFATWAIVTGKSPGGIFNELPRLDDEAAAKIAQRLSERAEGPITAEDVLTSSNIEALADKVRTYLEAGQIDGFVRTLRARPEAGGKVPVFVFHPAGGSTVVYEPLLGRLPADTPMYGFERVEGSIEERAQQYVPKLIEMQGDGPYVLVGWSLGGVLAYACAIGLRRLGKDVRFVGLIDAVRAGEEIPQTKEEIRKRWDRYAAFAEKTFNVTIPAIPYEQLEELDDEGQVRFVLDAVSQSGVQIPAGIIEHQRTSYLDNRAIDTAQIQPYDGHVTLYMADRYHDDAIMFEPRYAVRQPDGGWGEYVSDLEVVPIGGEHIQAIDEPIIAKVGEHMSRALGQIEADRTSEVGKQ
UniProt P9WNZ1, whole entry: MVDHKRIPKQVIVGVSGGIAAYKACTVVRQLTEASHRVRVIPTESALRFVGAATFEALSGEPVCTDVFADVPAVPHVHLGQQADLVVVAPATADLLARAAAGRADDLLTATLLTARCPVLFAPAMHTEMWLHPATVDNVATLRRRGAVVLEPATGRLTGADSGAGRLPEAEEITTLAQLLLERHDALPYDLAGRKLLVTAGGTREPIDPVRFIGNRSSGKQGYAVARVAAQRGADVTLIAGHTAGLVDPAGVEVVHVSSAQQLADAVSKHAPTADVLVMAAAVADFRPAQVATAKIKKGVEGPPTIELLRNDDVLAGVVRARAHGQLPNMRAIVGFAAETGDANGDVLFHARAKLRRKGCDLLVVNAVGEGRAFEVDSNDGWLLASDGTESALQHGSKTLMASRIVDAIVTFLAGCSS
UniProt P9WPC5, whole entry: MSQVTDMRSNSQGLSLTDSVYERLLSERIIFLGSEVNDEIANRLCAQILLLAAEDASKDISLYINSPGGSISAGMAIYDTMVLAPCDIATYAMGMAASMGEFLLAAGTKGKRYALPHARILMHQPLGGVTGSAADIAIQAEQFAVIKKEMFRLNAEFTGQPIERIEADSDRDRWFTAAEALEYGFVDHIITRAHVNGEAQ
UniProt P9WPC3, whole entry partner: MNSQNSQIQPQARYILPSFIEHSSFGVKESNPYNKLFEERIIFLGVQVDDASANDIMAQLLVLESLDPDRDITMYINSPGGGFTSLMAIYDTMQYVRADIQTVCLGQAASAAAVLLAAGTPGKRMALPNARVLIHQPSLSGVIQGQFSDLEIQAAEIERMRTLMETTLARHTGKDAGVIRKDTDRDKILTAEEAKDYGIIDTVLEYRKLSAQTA
UniProt P9WFT3, whole entry: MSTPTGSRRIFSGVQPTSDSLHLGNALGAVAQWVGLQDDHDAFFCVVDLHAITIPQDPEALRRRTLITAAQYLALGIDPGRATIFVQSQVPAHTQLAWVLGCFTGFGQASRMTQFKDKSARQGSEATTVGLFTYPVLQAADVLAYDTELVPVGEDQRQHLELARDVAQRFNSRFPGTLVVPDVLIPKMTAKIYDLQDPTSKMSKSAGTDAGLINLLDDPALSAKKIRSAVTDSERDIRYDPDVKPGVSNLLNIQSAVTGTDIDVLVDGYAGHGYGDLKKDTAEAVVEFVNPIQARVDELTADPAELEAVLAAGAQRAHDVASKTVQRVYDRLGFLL

A: 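Enzyme assay of the thioesterase domain of polyketide synthase 13; the read-out is not stated. Target: Polyketide synthase Pks13, Mycobacterium tuberculosis (UniProt I6X8D2). Concentration: 30 µM. The record gives no direction; the compounds picked for IC50 retests had high values, so higher reads as stronger inhibition. Of about 67,000 compounds tested this way, about 300 (0.46%) reached 50% or more in at least one test.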
B: 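Assay of Toxoplasma gondii numbers, read through their beta-galactosidase reporter with a colour substrate. Tested at 10 µM. The record gives no direction; the compounds picked for IC50 retests had high values, so higher reads as fewer parasites. Of about 67,000 compounds tested this way, about 260 (0.38%) reached 50% or more in at least one test.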
C: 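Enzyme assay of CoaBC with a phosphate dye (Biomol Green) read at 650 nm. Target: Coenzyme A biosynthesis protein CoaBC, Mycobacterium tuberculosis (UniProt P9WNZ1). Tested at 30 µM. Higher reads as stronger inhibition, judged from the few compounds that gave an IC50. Most strong results did not repeat in a second test. Size under these conditions: about 67,000 compounds, about 40 of them at 50% or above in at least one test.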
D: 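ClpP1P2, Mycobacterium tuberculosis (UniProt P9WPC5 and UniProt P9WPC3). Protease assay of ClpP1P2, read by the AMC dye that it sets free. Tested at 50 µM. Higher reads as stronger inhibition, judged from the few compounds that gave an IC50. Most other retested compounds had strongly negative values. About 69,000 compounds were tested under these conditions; 0.015% (about 10) showed 50% or more at least once.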
E: 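Cell assay of Leishmania donovani living inside macrophages; the read-out is not stated. Tested at 30 µM. Higher reads as stronger inhibition (inferred: compounds with an IC50 in retests scored well above the rest). About 69,000 compounds were tested under these conditions; 1.5% (about 1,000) showed 50% or more at least once.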
F: 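Tryptophan-tRNA ligase, Mycobacterium tuberculosis (UniProt P9WFT3). Enzyme assay of tryptophanyl-tRNA synthetase; the read-out is not stated. Compounds at 10 µM. Direction is not recorded; retested compounds ran higher, which suggests that high means inhibition. Of about 65,000 compounds tested this way, about 64 (0.098%) reached 50% or more in at least one test.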

Values are the deposited “Percent Effect”, in %.
The record does not define 0% and 100%; most values in the screen are far below 50% and negative numbers occur (in some assays of this library far below -100).
The compounds are a random part of those screened.
A dash means the value is not listed here; it may have been measured.

| structure | A | B | C | D | E | F |
|---|---|---|---|---|---|---|
| `Cc1csc(CNC(=O)NC2CCCN(S(C)(=O)=O)C2)n1` (centres undefined) | -14.1% | -8.19% | 1.623% | 3.46% | 18.13% | -1.564% |
| `COCC(O)CN(C)c1ccnc2cc(F)ccc12` (centres undefined) | 6.432% | -1.162% | 4.126% | 20.44% | 2.518% | -3.744% |
| `CNS(=O)(=O)c1cccc(C(C)NCc2cccc(O)c2)c1` (centres undefined) | -11.85% | 3.269% | -3.968% | -7.982% | 23.7% | 2.16% |
| `CC(O)CN1CCN(C(=O)c2ccc(Br)o2)CC1` (centres undefined) | 1.748% | -2.399% | 0.7979% | 22.9% | -13.24% | -6.604% |
| `CSCCN(C)C(=O)C1(c2ccc(F)cc2F)CCOCC1` | -7.814% | 9.273% | 7.09% | -9.651% | 17.23% | -1.49% |
| `Cc1noc(C)c1CN(C)c1ncnc2onc(C)c12` | -21.79% | 4.253% | 2.213% | 7.178% | -10.33% | 2.886% |
| `CCc1nccn1CC(=O)N1C[C@H]2CC[C@@H]1CN(C(=O)N(C)C)C2` | -13.81% | - | -0.2445% | 0.2789% | - | -0.5961% |
| `Cc1ccc(NC(=O)Cn2ccc3c(=O)n(C)ccc32)cc1F` | -2.049% | 13.71% | 1.564% | 5.182% | -15.88% | 3.522% |
| `CS(=O)(=O)N1CCC2(CC1)COC(COc1ccccn1)C2.O=C(O)C(F)(F)F` (centres undefined) | - | 12.56% | - | - | -6.665% | - |
| `CCn1nccc1CNC(=O)C1CCCCC1` | -10.74% | 9.981% | -4.478% | 1.474% | -47.11% | 2.724% |
| `CC(C)c1nnc2n1CCN(Cc1ccc3c(c1)OCO3)CC2` | -10.82% | 4.945% | -6.884% | -1.622% | 2.001% | -2.352% |
| `Cc1ccc(CC(=O)N2CCN(C3CCOC3=O)CC2)cc1` (centres undefined) | 2.452% | 11.15% | 2.445% | -28.94% | 34.18% | -4.237% |
| `O=C(NC1CC1)N1CCc2ccc(=O)n(Cc3cccnc3)c2CC1` | -3.037% | - | -3.594% | -0.2144% | - | 0.9161% |
| `Nc1nc(N2CCCCCC2)ncc1C(=O)NCc1ccc(F)c(Cl)c1` | 47.03% | - | -2.552% | 11.75% | 1.039% | -1.768% |
| `O=c1n(CCSCc2ccccc2Cl)nc2ccccn12` | -10.9% | 1.042% | -13.17% | -11.89% | 14.98% | 2.034% |
| `CC(C)c1cc(NC2CCCN(C(=O)c3cccs3)C2)ncn1` (centres undefined) | -0.4541% | 1.007% | 3.421% | 8.199% | -9.128% | -6.238% |
| `Cn1nc2c(cc1=O)CN(Cc1ccc(-n3cccn3)cc1)CC2` | -3.829% | -4.003% | 1.691% | 0.5379% | -8.46% | -3.455% |
| `CCc1noc(C(C)N2CCN(Cc3cnc(C)cn3)CC2)n1` (centres undefined) | -5.794% | 0.6952% | -7.662% | -1.092% | -9.319% | 3.423% |
| `Cn1ccc(C(=O)N2CCC3(CCN3c3ncccn3)C2)n1.O=C(O)C(F)(F)F` (centres undefined) | - | 10.3% | - | - | 1.139% | - |
| `CN1CC(=O)N(c2ccsc2)CC12CCN(S(=O)(=O)C1CC1)C2.O=C(O)C(F)(F)F` (centres undefined) | - | 0.2429% | - | - | 42.33% | - |
| `Cn1ccnc1CN(CCO)C(=O)c1nc2ccccc2s1` | 4.588% | 0.5187% | -0.2058% | -4.838% | 2.433% | -0.7042% |
| `O=C(c1cnccn1)N1CCc2onc(CN3CCOCC3)c2C1` | -20.29% | 2.636% | 3.342% | 11.67% | -9.673% | -5.144% |
| `[H][C@@]12COC[C@@H](C(=O)N3CCOCC3)[C@]1([H])CN(CC1CCCC1)C2` | - | -6.095% | - | - | 9.348% | - |
| `CCC(C)C(=O)NCCCn1nc(C)cc1C` (centres undefined) | -18.95% | 6.68% | 0.9223% | -0.4612% | 2.641% | -3.562% |
| `Cc1nc(-c2nc(C(=O)N(C)C)c3ccccn23)cn1C(C)C` | -1.307% | 5.807% | 2.847% | -172.6% | 30.06% | - |
| `CN(C)C(=O)c1c[nH]nc1C1CCN(S(=O)(=O)c2ccc(Cl)cc2)CC1` | -15.43% | - | 0.4751% | 13.98% | 5.206% | 2.242% |
| `CCOc1ccccc1CN1CCc2nc3ccsc3c(=O)n2CC1.Cl` | - | 0.6786% | - | - | -29.15% | - |
| `CC(=O)N1CCCN(Cc2cc(F)cc(Br)c2)CC1` | 14.64% | 4.697% | 2.405% | 6.189% | 14.24% | -5.559% |
| `CCSCCNc1cc(C)nc2c(C)c(C)nn12` | 2.113% | -4.265% | 4.714% | 4.627% | 2.484% | 6.065% |

For reference, 2 entries once more:

structure	A	B	C	D	E	F
Cc1ccc(NC(=O)Cn2ccc3c(=O)n(C)ccc32)cc1F	-2.049%	13.71%	1.564%	5.182%	-15.88%	3.522%
CCc1nccn1CC(=O)N1C[C@H]2CC[C@@H]1CN(C(=O)N(C)C)C2	-13.81%	-	-0.2445%	0.2789%	-	-0.5961%

From ChEMBL document CHEMBL3988442, “University of Dundee, Small-Polar-MMV Screening Library” (2021).